# Reference: the supplement of paper PMC11438910
# The list shows a part of the results. Most of these values are background signal.
# B1: 4-99.2 (protein)
# chain 1: QVQLQESGPGLVKPSETLSLTCAVSGYSIRSAYEWGWIRQPPGKGLEYIGYISGESGNTYYSPSLKSRVTISRDTSKNQFSLRLSSVTAADSAVYYCARRGQLIGFDFWGQGVLVTVSS
# chain 2: QAAPTQPPSVSGSPGQSVTISCTGTSSDIGYYNAVSWYQHLPGKAPKLMIYEVSKRPSGVSDRFSGSKSGNTASLTISGLQAEDEADYYCSSYAGSNTYIFGAGTRLTVL
# Columns and labels:
# Test in all cases: fluorescence intensity of antibody binding to polysaccharide-coupled beads; higher = stronger binding
# [1] = biological target: pneumococcal polysaccharide Pn19B
# [2] = biological target: pneumococcal polysaccharide Pn19C
# [3] = biological target: pneumococcal polysaccharide Pn19F
# [4] = biological target: pneumococcal polysaccharide Pn2
# [5] = biological target: pneumococcal polysaccharide Pn20A
# [6] = biological target: pneumococcal polysaccharide Pn20B
# [7] = biological target: pneumococcal polysaccharide Pn21
# [8] = biological target: pneumococcal polysaccharide Pn22A
# [9] = biological target: pneumococcal polysaccharide Pn22F
# [10] = biological target: pneumococcal polysaccharide Pn23A
# [11] = biological target: pneumococcal polysaccharide Pn23B
# [12] = biological target: pneumococcal polysaccharide Pn23F
# [13] = antibody concentration 0.1 ng/mL
# [14] = antibody concentration 0.534724 ng/mL
# [15] = antibody concentration 2.8593 ng/mL
# [16] = antibody concentration 15.2894 ng/mL
# [17] = antibody concentration 81.7561 ng/mL
# [18] = antibody concentration 437.17 ng/mL
# [19] = antibody concentration 2337.65 ng/mL
# [20] = antibody concentration 12500 ng/mL
binder,measurement,setting,value
B1,fluorescence intensity,[1]; [13],28 MFI
same,fluorescence intensity,[1]; [14],31 MFI
same,fluorescence intensity,[1]; [15],30.5 MFI
same,fluorescence intensity,[1]; [16],31 MFI
same,fluorescence intensity,[1]; [17],30 MFI
same,fluorescence intensity,[1]; [18],30.2 MFI
same,fluorescence intensity,[1]; [19],36 MFI
same,fluorescence intensity,[1]; [20],77.2 MFI
same,fluorescence intensity,[2]; [13],26.2 MFI
same,fluorescence intensity,[2]; [14],25.5 MFI
same,fluorescence intensity,[2]; [15],23 MFI
same,fluorescence intensity,[2]; [16],26.5 MFI
same,fluorescence intensity,[2]; [17],29 MFI
same,fluorescence intensity,[2]; [18],27 MFI
same,fluorescence intensity,[2]; [19],31.2 MFI
same,fluorescence intensity,[2]; [20],56.2 MFI
same,fluorescence intensity,[3]; [13],24.5 MFI
same,fluorescence intensity,[3]; [14],25 MFI
same,fluorescence intensity,[3]; [15],23.5 MFI
same,fluorescence intensity,[3]; [16],23.5 MFI
same,fluorescence intensity,[3]; [17],24 MFI
same,fluorescence intensity,[3]; [18],24 MFI
same,fluorescence intensity,[3]; [19],26 MFI
same,fluorescence intensity,[3]; [20],39.5 MFI
same,fluorescence intensity,[4]; [13],17.5 MFI
same,fluorescence intensity,[4]; [14],19 MFI
same,fluorescence intensity,[4]; [15],18.2 MFI
same,fluorescence intensity,[4]; [16],18 MFI
same,fluorescence intensity,[4]; [17],17.5 MFI
same,fluorescence intensity,[4]; [18],19.5 MFI
same,fluorescence intensity,[4]; [19],20 MFI
same,fluorescence intensity,[4]; [20],25.5 MFI
same,fluorescence intensity,[5]; [13],23.5 MFI
same,fluorescence intensity,[5]; [14],22 MFI
same,fluorescence intensity,[5]; [15],22.8 MFI
same,fluorescence intensity,[5]; [16],23.5 MFI
same,fluorescence intensity,[5]; [17],24 MFI
same,fluorescence intensity,[5]; [18],22.5 MFI
same,fluorescence intensity,[5]; [19],29 MFI
same,fluorescence intensity,[5]; [20],54 MFI
same,fluorescence intensity,[6]; [13],24 MFI
same,fluorescence intensity,[6]; [14],25.5 MFI
same,fluorescence intensity,[6]; [15],23 MFI
same,fluorescence intensity,[6]; [16],23.2 MFI
same,fluorescence intensity,[6]; [17],23 MFI
same,fluorescence intensity,[6]; [18],25.5 MFI
same,fluorescence intensity,[6]; [19],24.5 MFI
same,fluorescence intensity,[6]; [20],30.5 MFI
same,fluorescence intensity,[7]; [13],19.2 MFI
same,fluorescence intensity,[7]; [14],19.5 MFI
same,fluorescence intensity,[7]; [15],18.2 MFI
same,fluorescence intensity,[7]; [16],18.8 MFI
same,fluorescence intensity,[7]; [17],18.5 MFI
same,fluorescence intensity,[7]; [18],18 MFI
same,fluorescence intensity,[7]; [19],18.8 MFI
same,fluorescence intensity,[7]; [20],21 MFI
same,fluorescence intensity,[8]; [13],20 MFI
same,fluorescence intensity,[8]; [14],20.8 MFI
same,fluorescence intensity,[8]; [15],19.5 MFI
same,fluorescence intensity,[8]; [16],22.2 MFI
same,fluorescence intensity,[8]; [17],23 MFI
same,fluorescence intensity,[8]; [18],23.5 MFI
same,fluorescence intensity,[8]; [19],22 MFI
same,fluorescence intensity,[8]; [20],34.5 MFI
same,fluorescence intensity,[9]; [13],30.5 MFI
same,fluorescence intensity,[9]; [14],27.8 MFI
same,fluorescence intensity,[9]; [15],32 MFI
same,fluorescence intensity,[9]; [16],30.5 MFI
same,fluorescence intensity,[9]; [17],30 MFI
same,fluorescence intensity,[9]; [18],31.5 MFI
same,fluorescence intensity,[9]; [19],32.8 MFI
same,fluorescence intensity,[9]; [20],33.8 MFI
same,fluorescence intensity,[10]; [13],22.5 MFI
same,fluorescence intensity,[10]; [14],25.2 MFI
same,fluorescence intensity,[10]; [15],22.5 MFI
same,fluorescence intensity,[10]; [16],22.8 MFI
same,fluorescence intensity,[10]; [17],21.5 MFI
same,fluorescence intensity,[10]; [18],26.2 MFI
same,fluorescence intensity,[10]; [19],30.2 MFI
same,fluorescence intensity,[10]; [20],49 MFI
same,fluorescence intensity,[11]; [13],28.8 MFI
same,fluorescence intensity,[11]; [14],29.5 MFI
same,fluorescence intensity,[11]; [15],29.5 MFI
same,fluorescence intensity,[11]; [16],27.5 MFI
same,fluorescence intensity,[11]; [17],30.5 MFI
same,fluorescence intensity,[11]; [18],29.5 MFI
same,fluorescence intensity,[11]; [19],33 MFI
same,fluorescence intensity,[11]; [20],35 MFI
same,fluorescence intensity,[12]; [13],16.5 MFI
same,fluorescence intensity,[12]; [14],18 MFI

# Fetched one by one from the list above:
binder,measurement,setting,value
B1,fluorescence intensity,[5]; [20],54 MFI
same,fluorescence intensity,[1]; [13],28 MFI
same,fluorescence intensity,[10]; [18],26.2 MFI
same,fluorescence intensity,[6]; [18],25.5 MFI
same,fluorescence intensity,[5]; [13],23.5 MFI
